Reference: US20260219277A1, “NOVEL FLUORESCENT COMPOUND, AND COMPOSITION FOR DETECTING GINGIPAIN, COMPOSITION FOR DIAGNOSING PORPHYROMONAS GINGIVALIS INFECTION, OR ANTIBACTERIAL COMPOSITION AGAINST PORPHYROMONAS GINGIVALIS USING SAME” (priority 2023, published 2026)
At least one structure is not confirmed: it was looked up by name or label, or the drawing left a doubt.

Experiments:
calpain = experiment: Fluorescence spectrum after culture with calpain; assay type: binding, human; details: 10 μM; λex=425 nm, λem=450-700 nm
Procedure: (§1) Specifically, after the gingipains (Kgp and Rgp) secreted from P. gingivalis, calpain, which is a cysteine protease, and trypsin, which is a serine protease, were cultured with fluorescent compound DTC630 (10 μM), a fluorescence spectrum was measured (λex=425 nm, λem=450-700 nm).
(§2) In addition, the degree of fluorescence reaction of fluorescent compound DTC630 (1, 3, 10, 30, and 100 μM) was measured at each concentration for Kgp, Rgp, calpain, and trypsin (final concentration: 0.3 mg/mL).

trypsin = experiment: Fluorescence spectrum after culture with trypsin; assay type: binding, human; details: 10 μM; λex=425 nm, λem=450-700 nm
Procedure: as §1, §2

[1] = test system: living P. gingivalis, F. nucleatum, and A. actinomycetecomitans; experiment: Cell-specific fluorescence labeling of living bacteria; assay type: cell-based, Porphyromonas gingivalis

`CN(C)c1ccc(-c2ccc(/C=C(\C#N)c3nnn[nH]3)cc2)cc1` [DTC630, (E)-3-(4′-(dimethylamino)-[1,1′-biphenyl]-4-yl)-2-(1H-tetrazol-5-yl) acrylonitrile] was tested, and the “detection of calpain (fluorescence compared to PBS), in words” value (calpain) was “no increase in fluorescence”, the “detection of trypsin (fluorescence compared to PBS), in words” value (trypsin) was “no increase in fluorescence” and the “cell-specific fluorescence reaction (labeling of living bacteria)” value [1] was “labeling only P. gingivalis”.
